No constants are given. Whether binding was seen depends on the method and setting. Binding seen in cells or lysates may run through a third protein. Some results given as binding are weak or reduced against the parent protein; the word gives no strength.
Target: SMAD specific E3 ubiquitin protein ligase 1 (Smurf1) (human (endogenous in HBMEC)) (UniProt Q9HCE7)
Assay: co-IP; HBMEC lysate precipitated with anti-Smurf1 antibody (IgG isotype control); Western blot with anti-IQGAP1

Amino acid sequences for entries named in this document (tags omitted).
UniProt Q9HCE7: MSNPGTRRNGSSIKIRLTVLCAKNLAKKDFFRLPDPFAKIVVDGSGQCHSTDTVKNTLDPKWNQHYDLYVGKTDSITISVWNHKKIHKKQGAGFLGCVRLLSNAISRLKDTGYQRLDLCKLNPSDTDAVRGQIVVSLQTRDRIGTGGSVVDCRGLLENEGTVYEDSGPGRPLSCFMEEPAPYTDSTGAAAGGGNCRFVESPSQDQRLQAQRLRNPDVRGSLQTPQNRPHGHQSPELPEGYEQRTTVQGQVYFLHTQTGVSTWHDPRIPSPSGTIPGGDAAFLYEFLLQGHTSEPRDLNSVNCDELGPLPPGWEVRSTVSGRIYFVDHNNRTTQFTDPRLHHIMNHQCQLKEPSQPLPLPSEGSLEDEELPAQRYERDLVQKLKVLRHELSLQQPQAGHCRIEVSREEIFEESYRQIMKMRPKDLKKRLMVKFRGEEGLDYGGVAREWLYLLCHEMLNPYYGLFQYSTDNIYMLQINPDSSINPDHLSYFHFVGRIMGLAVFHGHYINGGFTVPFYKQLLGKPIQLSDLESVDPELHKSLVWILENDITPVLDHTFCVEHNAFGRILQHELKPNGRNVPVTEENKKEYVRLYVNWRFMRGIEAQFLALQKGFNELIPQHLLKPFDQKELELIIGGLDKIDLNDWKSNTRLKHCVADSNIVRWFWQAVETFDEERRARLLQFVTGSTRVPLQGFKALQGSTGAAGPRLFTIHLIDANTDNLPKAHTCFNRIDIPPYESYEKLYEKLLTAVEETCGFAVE
UniProt P46940: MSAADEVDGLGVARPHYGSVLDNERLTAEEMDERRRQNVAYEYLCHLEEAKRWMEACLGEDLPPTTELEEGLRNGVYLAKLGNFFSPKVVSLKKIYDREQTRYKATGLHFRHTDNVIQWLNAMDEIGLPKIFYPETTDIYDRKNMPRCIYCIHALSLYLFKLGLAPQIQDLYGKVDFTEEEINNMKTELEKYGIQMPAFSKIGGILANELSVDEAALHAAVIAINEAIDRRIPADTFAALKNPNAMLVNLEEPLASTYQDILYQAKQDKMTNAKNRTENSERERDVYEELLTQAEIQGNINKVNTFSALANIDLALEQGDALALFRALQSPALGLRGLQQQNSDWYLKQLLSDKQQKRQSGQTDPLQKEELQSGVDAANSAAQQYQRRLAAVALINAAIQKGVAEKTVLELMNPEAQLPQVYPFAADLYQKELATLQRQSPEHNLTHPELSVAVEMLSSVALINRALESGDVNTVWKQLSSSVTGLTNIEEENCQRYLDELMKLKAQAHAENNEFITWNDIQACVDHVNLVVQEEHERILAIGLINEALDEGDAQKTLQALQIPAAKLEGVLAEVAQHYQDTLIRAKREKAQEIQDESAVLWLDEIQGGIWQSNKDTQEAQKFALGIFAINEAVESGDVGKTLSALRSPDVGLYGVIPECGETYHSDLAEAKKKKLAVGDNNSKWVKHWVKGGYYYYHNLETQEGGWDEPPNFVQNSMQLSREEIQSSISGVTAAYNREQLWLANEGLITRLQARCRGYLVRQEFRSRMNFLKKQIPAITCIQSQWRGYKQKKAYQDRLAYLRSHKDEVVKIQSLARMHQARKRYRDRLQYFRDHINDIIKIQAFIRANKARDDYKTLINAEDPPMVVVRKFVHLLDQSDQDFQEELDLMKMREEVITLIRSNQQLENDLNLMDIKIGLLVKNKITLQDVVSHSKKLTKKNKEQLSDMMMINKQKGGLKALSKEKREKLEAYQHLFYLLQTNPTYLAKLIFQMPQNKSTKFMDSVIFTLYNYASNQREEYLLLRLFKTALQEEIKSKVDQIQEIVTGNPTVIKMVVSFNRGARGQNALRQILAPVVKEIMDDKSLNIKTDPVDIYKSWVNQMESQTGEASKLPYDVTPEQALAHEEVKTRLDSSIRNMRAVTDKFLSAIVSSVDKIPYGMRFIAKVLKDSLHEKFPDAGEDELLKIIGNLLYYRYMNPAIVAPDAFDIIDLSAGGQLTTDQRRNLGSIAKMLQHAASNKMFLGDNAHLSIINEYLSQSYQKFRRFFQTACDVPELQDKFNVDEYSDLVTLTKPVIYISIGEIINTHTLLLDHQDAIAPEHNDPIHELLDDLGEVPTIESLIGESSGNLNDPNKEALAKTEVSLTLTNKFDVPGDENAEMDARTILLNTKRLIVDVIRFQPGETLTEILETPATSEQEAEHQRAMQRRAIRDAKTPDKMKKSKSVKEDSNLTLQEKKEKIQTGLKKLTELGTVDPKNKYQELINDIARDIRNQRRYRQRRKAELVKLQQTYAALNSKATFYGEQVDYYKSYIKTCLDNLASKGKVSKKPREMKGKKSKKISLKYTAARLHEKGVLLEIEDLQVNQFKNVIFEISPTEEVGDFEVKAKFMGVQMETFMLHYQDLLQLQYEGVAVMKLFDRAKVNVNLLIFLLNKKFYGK

- binding: binds
Substance: IQ motif containing GTPase activating protein 1 (IQGAP1) (from UniProt P46940 1-1657)
